Here are results for 1 molecule from patent US20120283184A1 (published 2012).

Protein sequences, listed by entry. Tags and fused reporters are not part of them. Lines headed by an entry give the natural chain unless they say otherwise; changes in a name come on top. Residues count along the entry.
UniProt P35918, residues 20-762: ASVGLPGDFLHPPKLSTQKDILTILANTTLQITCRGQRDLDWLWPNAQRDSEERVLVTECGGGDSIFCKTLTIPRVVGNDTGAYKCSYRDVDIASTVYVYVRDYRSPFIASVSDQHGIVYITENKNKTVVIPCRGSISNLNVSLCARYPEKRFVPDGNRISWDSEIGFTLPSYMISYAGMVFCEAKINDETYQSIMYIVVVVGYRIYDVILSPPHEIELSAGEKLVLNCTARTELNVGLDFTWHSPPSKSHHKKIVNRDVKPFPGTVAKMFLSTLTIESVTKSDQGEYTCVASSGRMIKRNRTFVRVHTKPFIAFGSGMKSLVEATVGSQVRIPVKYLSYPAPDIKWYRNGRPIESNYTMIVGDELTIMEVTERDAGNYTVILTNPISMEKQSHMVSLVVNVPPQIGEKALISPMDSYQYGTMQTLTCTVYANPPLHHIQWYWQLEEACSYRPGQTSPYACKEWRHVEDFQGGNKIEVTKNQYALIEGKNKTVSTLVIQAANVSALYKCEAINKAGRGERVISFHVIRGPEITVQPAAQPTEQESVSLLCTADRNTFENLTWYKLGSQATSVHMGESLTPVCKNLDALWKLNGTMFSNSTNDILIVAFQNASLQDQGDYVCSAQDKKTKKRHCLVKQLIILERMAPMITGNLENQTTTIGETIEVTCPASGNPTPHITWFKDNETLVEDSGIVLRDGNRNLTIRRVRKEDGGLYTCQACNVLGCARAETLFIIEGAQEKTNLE

Results are given in words; binding and its absence hold for the method and conditions named.

The assay deals with Flk-1-Fc (mouse vascular endothelial growth factor receptor-2 Fc chimera) (mouse) (UniProt P35918). In words: radioactive equilibrium binding assay with VEGFR-2-Fc chimeras (FIG. 4).

B1: VR28 (designed binder)
chain: VSDVPRDLEVVAATPTSLLISWRHPHFPTRYYRITYGETGGNSPVQEFTVPLQPPTATISGLKPGVDYTITGYAVTVAQNDHELITPISINYRT
In the case of B1, the binding entry was “no binding”.
